{"source": "paper PMC12614216", "key": {"[1]": {"target": "T1, OrfL (Streptococcus thermophilus ICESt3) (UniProt Q935T9)", "T1 sequence (looked up, limits assumed)": "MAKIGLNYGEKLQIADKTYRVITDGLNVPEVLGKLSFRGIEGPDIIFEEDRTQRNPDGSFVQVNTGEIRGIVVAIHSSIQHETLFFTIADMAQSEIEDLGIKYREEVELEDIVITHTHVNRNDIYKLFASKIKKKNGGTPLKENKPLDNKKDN", "assay": "switchSENSE", "details": "no PFA; switchSENSE: 25 mM Tris-HCl pH 8.0, 100 mM NaCl, 25 C; recombinant protein; protein details: 6xHis-TEV removed (TEV cleaved)"}, "[2]": {"target": "OrfM (Streptococcus thermophilus ICESt3) (UniProt Q70CB0)", "assay": "switchSENSE", "details": "no PFA; switchSENSE: 25 mM Tris-HCl pH 8.0, 100 mM NaCl, 25 C; recombinant protein; protein details: 6xHis-TEV removed (TEV cleaved)"}, "[3]": {"target": "T1, OrfL (Streptococcus thermophilus ICESt3)", "assay": "EMSA", "details": "0.02% PFA, 0.2 uM DNA, 0-12 uM protein, EMSA: 20 mM HEPES, 150 mM NaCl, 37 C 15 min, then 0.02% PFA 1 h 37 C (without PFA no notable shift on various unnamed ss/dsDNA substrates, data not shown), recombinant protein, protein details: 6xHis-TEV removed (TEV cleaved)"}, "[4]": {"system": "OrfL in OrfL-OrfM complex + OrfM in OrfL-OrfM complex", "assay": "EMSA", "details": "0.02% PFA, pre-formed 1:1 complex, EMSA: 20 mM HEPES, 150 mM NaCl, 37 C 15 min, then 0.02% PFA 1 h 37 C (without PFA no notable shift on various unnamed ss/dsDNA substrates, data not shown), recombinant protein"}, "[5]": {"target": "OrfM (Streptococcus thermophilus ICESt3) (UniProt Q70CB0)", "assay": "EMSA", "details": "0.02% PFA, 0.2 uM DNA, 0-12 uM protein, EMSA: 20 mM HEPES, 150 mM NaCl, 37 C 15 min, then 0.02% PFA 1 h 37 C (without PFA no notable shift on various unnamed ss/dsDNA substrates, data not shown), recombinant protein, protein details: 6xHis-TEV removed (TEV cleaved)"}, "[6]": {"details": "slightly higher affinity than dsDNA, label: 5' 6-FAM, single-stranded DNA"}}, "note": "The comparison behind a weaker result is the experiment's own reference, which may not be listed here. For some of these results: Protein sequences can lack the tags named with them. For some of these results: The exact form of at least one protein or probe is not confirmed. For some of these results: At least one verdict was read from the data and is not stated in words by the source.", "data": [{"sequence": "GAGACTTCAACCCCCGATTTCTAATAGGGGGGTTACATTTTCAAGATTTAGAAAGTGTGTCACTTTGGTCCAAAAAGTGTGTCACTTAGTCAAAAGGAGATATATCAGCGTTCGATGCTTCCGACTAATCAGCCATATCAGCTTACGACTA [ssDNA-overhang on nanolever]", "values": [{"measurement": "binding result", "setting": "[1]", "value": "binds more weakly"}, {"measurement": "binding result", "setting": "[2]", "value": "binds more weakly"}]}, {"sequence": "GAGACTTCAACCCCCGATTTCTAATAGGGGGGTTACATTTTCAAGATTTAGAAAGTGTGTCACTTTGGTCCAAAAAGTGTGTCACTTAGTCAAAAGGAGATATATCAGCGTTCGATGCTTCCGACTAATCAGCCATATCAGCTTACGACTA / CTCCTTTTGACTAAGTGACACACTTTTTGGACCAAAGTGACACACTTTCTAAATCTTGAAAATGTAACCCCCCTATTAGAAATCGGGGGTTGAAGTCTC [dsDNA-overhang on nanolever]", "values": [{"measurement": "binding result", "setting": "[1]", "value": "binds more weakly"}, {"measurement": "binding result", "setting": "[2]", "value": "binds more weakly"}]}, {"sequence": "GAGACTTCAACCCCCGATTTCTAATAGGGGGGTTACATTTTCAAGATTTAGAAAGTGTGTCACTTTGGTCCAAAAAGTGTGTCACTTAGTCAAAAGGAG (double strand) [EMSA dsDNA (oriT)]", "values": [{"measurement": "binding result", "setting": "[3]; label: 5' 6-FAM on strand 1", "value": "binds more weakly"}, {"measurement": "binding result", "setting": "[4]; label: 5' 6-FAM on strand 1", "value": "binds more weakly"}, {"measurement": "binding result", "setting": "[5]; label: 5' 6-FAM on strand 1", "value": "binds more weakly"}]}, {"sequence": "GAGACTTCAACCCCCGATTTCTAATAGGGGGGTTACATTTTCAAGATTTAGAAAGTGTGTCACTTTGGTCCAAAAAGTGTGTCACTTAGTCAAAAGGAG [EMSA ssDNA (oriT)]", "values": [{"measurement": "binding result", "setting": "[3]; [6]", "value": "binds more weakly"}, {"measurement": "binding result", "setting": "[4]; [6]", "value": "binds more weakly"}, {"measurement": "binding result", "setting": "[5]; [6]", "value": "binds more weakly"}]}]}
